According to publication PMC9623174:

Biological target: ZeGL3 (pGBKT7-ZeGL3) (Zinnia elegans)
Assay: two-hybrid; ZeMYB9 in pGADT7 (AD), ZeGL3 in pGBKT7 (BD); yeast strain Y2H Gold; growth on SD/-His-Leu-Trp medium at 30°C for 4 days

- binding: binds
Substance: ZeMYB9 (pGADT7-ZeMYB9) (from UniProt A0A977TEB2)

These are yes or no findings as the source states them, for the method shown. Binding calls can cover weak binding; strength is not graded here.
